Data as given in the supplement of paper PMC7889204.
This is one part of the list. Repeats are few or missing, and single values can be far off.

System: C6
Test: cell mass (Coomassie absorbance) after combination of library compound with HMBA, relative to vehicle control (fraction); higher = more remaining cells (less growth inhibition)

Row | SMILES | cell mass
1 | Cc1cc(Nc2nc(N[C@@H](C)c3ncc(F)cn3)ncc2Cl)[nH]n1 + CC(=O)NCCCCCCNC(C)=O [hexamethylene bisacetamide] | 0.55
2 | C/C(=C\C(=O)Nc1ccccc1C(=O)O)c1ccc2ccccc2c1 + CC(=O)NCCCCCCNC(C)=O [hexamethylene bisacetamide] | 0.41
3 | CC(C)(C)C#Cc1cc(N(C(=O)[C@H]2CC[C@H](C)CC2)[C@H]2CC[C@H](O)CC2)c(C(=O)O)s1 + CC(=O)NCCCCCCNC(C)=O [hexamethylene bisacetamide] | 1.02
4 | COc1c(C)cnc(Cn2cnc3c(Cl)nc(N)nc32)c1C + CC(=O)NCCCCCCNC(C)=O [hexamethylene bisacetamide] | 0.529
5 | CCS(=O)(=O)Nc1ccc2c(c1)/C(=C(/Nc1ccc(CN3CCCCC3)cc1)c1ccccc1)C(=O)N2 [Hesperadin] + CC(=O)NCCCCCCNC(C)=O [hexamethylene bisacetamide] | 0.312
6 | NC1(Cc2ccc(Cl)cc2)CCN(c2ncnc3[nH]ccc23)CC1 + CC(=O)NCCCCCCNC(C)=O [hexamethylene bisacetamide] | 0.343
7 | O=c1c(-c2ccc(O)cc2)coc2cc(O)cc(O)c12 [Genistein] + CC(=O)NCCCCCCNC(C)=O [hexamethylene bisacetamide] | 0.57
8 | CN1CCC(CNc2ccc3ncc(-c4cccc(OC(F)(F)F)c4)n3n2)CC1 + CC(=O)NCCCCCCNC(C)=O [hexamethylene bisacetamide] | 0.597
9 | COc1cc2nccc(Oc3ccc(NC(=O)Nc4cc(C)on4)c(Cl)c3)c2cc1OC [AV-951(Tivozanib)] + CC(=O)NCCCCCCNC(C)=O [hexamethylene bisacetamide] | 0.283
